Results deposited as PubChem BioAssay AID1224830 (NIAID, 2016)
The whole screen tested about 18,000 reagents; this is a random part of them. About 2,900 of them (16%) count as active. 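Calls are made per well; low scores hint the gene aids the LPS response, high scores that it dampens it.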 Entries without a mark were called inactive. Repeated entries: four replicate wells of each siRNA pool. No sequences are given here.

- Test: 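Genes whose knock-down alters the TNF-alpha reporter response to LPS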 (primary screen)
- System: human THP-1 monocytic leukaemia cells, TNF dual-luciferase reporter clone, PMA-differentiated to macrophage-like cells
- Reagent: siRNA pool against human genes, 50 nM
- Time to read-out: LPS for 4 h, given about 3 days after siRNA transfection
- Conditions: bacterial LPS (TLR4 ligand), 10 ng/ml
- Read-out: 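TNF firefly reporter luminescence divided by renilla, normalised to the plate median, then turned into a robust z-score for each replicate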
- Reading the numbers: TNF reporter robust z-score: higher = stronger TNF reporter response to LPS
- Call rule: 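Each well counts as active if its z-score is over 2.8 or under -1.5; controls are left without a call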

target gene	TNF reporter robust z-score
KIR3DL1	2.05
KIR3DL1	-0.11
KIR3DL1	0.25
KIR3DL1	-0.9
TPM3	0
TPM3	0.74
TPM3	-0.35
TPM3	-0.04
LINC02914	-1.6 (active)
LINC02914	-1.44
LINC02914	-1.55 (active)
LINC02914	-1.94 (active)
HIBCH	0.21
HIBCH	0.54
HIBCH	0.45
HIBCH	1.47
PANK1	-0.01
PANK1	0.28
PANK1	0.91
PANK1	1.8
EVA1C	-0.01
EVA1C	1.04
EVA1C	-1.18
EVA1C	-1.32
MAP3K6	0.22
MAP3K6	1.47
MAP3K6	-0.36
MAP3K6	-0.4
OR1I1	2.42
OR1I1	1.68
OR1I1	0.02
OR1I1	0
ZNF133	-0.38
ZNF133	-0.18
ZNF133	-0.55
ZNF133	-0.09
CYB561D1	1.38
CYB561D1	-0.05
CYB561D1	0.49
CYB561D1	1.25
NBPF15	-0.47
NBPF15	-0.43
NBPF15	1.37
NBPF15	-1.11
LRRC49	1.35
LRRC49	-0.2
LRRC49	0.32
LRRC49	0.84

Reagents above called active, once more:
target gene	TNF reporter robust z-score
LINC02914	-1.6 (active)
LINC02914	-1.55 (active)
LINC02914	-1.94 (active)
